Data as given in PubChem BioAssay AID1053208 (Peter MacCallum Cancer Centre, 2014)
Screen: 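Genes whose silencing cuts survival of bone tumour cells only with doxorubicin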 (primary screen). System: mouse osteosarcoma cells, early-passage culture from an engineered mouse model of fibroblastic bone tumour. Reagent: siRNA pool against mouse genes, 40 nM. Timing: about 120 h (48 h before drug, then 72 h with drug). Treatment: doxorubicin 100 nM for 72 h, roughly 30-40% inhibitory dose. Detection: 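Viability read as ATP luminescence after 72 h of 100 nM doxorubicin or none, duplicate wells averaged, scaled to non-targeting siRNA, then expressed as robust z-scores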. Scale: viability z-score with doxorubicin: higher = more viable cells under doxorubicin; viability z-score without drug: higher = more viable cells with knock-down alone. Rule for the call: 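Called active if knock-down leaves viability unchanged without drug (z within -2 to 2) but lowers it with doxorubicin (z at or under -2)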.
This is an unselected part of about 17,000 deposited reagents. In the full data, 788 (4.7%) were called active. 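Calls rest on z-score classes alone; an extra cut-off of viability at most 70% of control was not applied to them.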 Reagents against one gene are numbered here. Not all columns of the deposit are shown.

Against E2f3 (GeneID 13557), the values are combined z-score class no change with or without drug; viability z-score with doxorubicin 1.35; viability z-score without drug 1.85; inactive.
After knock-down of Poll (GeneID 56626), the screen gave combined z-score class no change with or without drug; viability z-score with doxorubicin 0.22; viability z-score without drug 0.51; inactive.
Against Cdx1 (GeneID 12590), the values are combined z-score class no change with or without drug; viability z-score with doxorubicin 0.22; viability z-score without drug 1.18; inactive.
Silencing of Dusp19 (GeneID 68082) came out at: combined z-score class no change with or without drug; viability z-score with doxorubicin 1.46; viability z-score without drug -0.17; inactive.
For Rbbp8nl (GeneID 271887) the deposit lists combined z-score class no change with or without drug; viability z-score with doxorubicin 0.34; viability z-score without drug -0.17; inactive.
Lrrc49 (GeneID 102747) scored combined z-score class low cell count without drug only; viability z-score with doxorubicin 1.24; viability z-score without drug -2.19; inactive.
With knock-down of Usf2 (GeneID 22282) the results were combined z-score class no change with or without drug; viability z-score with doxorubicin 0.22; viability z-score without drug -0.17; inactive.
Against Lcn10 (GeneID 332578), the entry reads combined z-score class no change with or without drug; viability z-score with doxorubicin -0.11; viability z-score without drug 0.17; inactive.
For BC035947 (GeneID 269211), the values are combined z-score class no change with or without drug; viability z-score with doxorubicin 1.12; viability z-score without drug 0.17; inactive.
Against Zc3h13 (GeneID 67302), the entry reads combined z-score class low cell count with doxorubicin only; viability z-score with doxorubicin -2.25; viability z-score without drug -0.84; active.
Depletion of Clmn (GeneID 94040) came out at: combined z-score class no change with or without drug; viability z-score with doxorubicin -1.35; viability z-score without drug -0.17; inactive.
Against Fgfrl1 (GeneID 116701), the entry reads combined z-score class no change with or without drug; viability z-score with doxorubicin -0.9; viability z-score without drug 0.84; inactive.
Asph (GeneID 65973) scored combined z-score class no change with or without drug; viability z-score with doxorubicin 0.56; viability z-score without drug 0.84; inactive.
Mixl1 (GeneID 27217) showed combined z-score class no change with or without drug; viability z-score with doxorubicin -0.45; viability z-score without drug 1.85; inactive.
Silencing of Cbr4 (GeneID 234309) resulted in: combined z-score class no change with or without drug; viability z-score with doxorubicin 0.34; viability z-score without drug -0.51; inactive.
Depletion of Trip4 (GeneID 56404) came out at: combined z-score class no change with or without drug; viability z-score with doxorubicin -0.67; viability z-score without drug -0.51; inactive.
With knock-down of Or5d37 (GeneID 258634), the record shows combined z-score class low cell count without drug only; viability z-score with doxorubicin -1.12; viability z-score without drug -2.19; inactive.
For Nono (GeneID 53610), the entry reads combined z-score class low cell count with doxorubicin only; viability z-score with doxorubicin -2.7; viability z-score without drug 0.17; active.
After knock-down of Zfp28 (GeneID 22690) #1, the record shows combined z-score class no change with or without drug; viability z-score with doxorubicin 0.34; viability z-score without drug 1.35; inactive.
For Zfp28 (GeneID 22690) #2 the deposit lists combined z-score class no change with or without drug; viability z-score with doxorubicin -0.45; viability z-score without drug -0.51; inactive.

Targets above whose target name starts with Z or z (3):
Zc3h13 (GeneID 67302): combined z-score class = low cell count with doxorubicin only; viability z-score with doxorubicin = -2.25; viability z-score without drug = -0.84; call = active
Zfp28 (GeneID 22690) #1: combined z-score class = no change with or without drug; viability z-score with doxorubicin = 0.34; viability z-score without drug = 1.35; call = inactive
Zfp28 (GeneID 22690) #2: combined z-score class = no change with or without drug; viability z-score with doxorubicin = -0.45; viability z-score without drug = -0.51; call = inactive
